# From PMC5037395
# The exact form of at least one protein or probe is not confirmed. For some assays here: Negatives hold for the conditions tested. For some assays here: At least one verdict was read from the data and is not stated in words by the source.
# Legend:
# SMAR1 [1] = assay: competition with a labelled probe; conditions: Oligo EMSA: 50 mM Tris pH 7.5, poly(dI-dC), room temperature 1 h, 8% native PAGE 4 C, recombinant protein, single-stranded DNA
# SMAR1 [2] = assay: EMSA; conditions: poly(dI-dC); Oligo EMSA: 50 mM Tris pH 7.5, poly(dI-dC), room temperature 1 h, 8% native PAGE 4 C; recombinant protein; label: Cy5 at 5' and 3' ends; single-stranded DNA
# SMAR1 [3] = assay: ITC; conditions: 25 C, significant dH, no Kd in text; ITC: 25 C, buffer not stated; recombinant protein; single-stranded DNA
# [4] = EMSA vs Cy5-(TG)10 and Cy5-(TC)10, poly(dI-dC)
sequence,measurement,setting,value
ATATATATATATATATATAT [(AT)10],binding result,SMAR1 [1]; [4],no binding
GCGCGCGCGCGCGCGCGCGC [(GC)10],binding result,SMAR1 [1]; [4],no binding
TCTCTCTCTCTCTCTCTCTC [(TC)10 Cy5],binding result,SMAR1 [2],binds
TCTCTCTCTCTCTCTCTCTC [(TC)10 untagged],binding result,"SMAR1 [1]; EMSA vs Cy5 oligo, poly(dI-dC)",binds
TCTGTCTGTCTGTCTGTCTG [(TCTG)5],binding result,"SMAR1 [1]; EMSA vs Cy5-(TG)10 and Cy5-(TC)10, poly(dI-dC), text: only (TC)10 and (TG)10 compete",no binding
TGTGTGTGTGTGTGTGTGTG [(TG)10 Cy5],binding result,SMAR1 [2],binds
TGTGTGTGTGTGTGTGTGTG [(TG)10 untagged],binding result,"SMAR1 [1]; EMSA vs Cy5 oligo, poly(dI-dC)",binds
same,binding result,SMAR1 [3],binds
